# From article PMC9820167, “Design and Synthesis of Conformationally Flexible Scaffold as Bitopic Ligands for Potent D3-Selective Antagonists” (International Journal of Molecular Sciences, 2022)
# The chains behind the UniProt entries cited, without tags or fusion partners.
# UniProt P35462, whole entry: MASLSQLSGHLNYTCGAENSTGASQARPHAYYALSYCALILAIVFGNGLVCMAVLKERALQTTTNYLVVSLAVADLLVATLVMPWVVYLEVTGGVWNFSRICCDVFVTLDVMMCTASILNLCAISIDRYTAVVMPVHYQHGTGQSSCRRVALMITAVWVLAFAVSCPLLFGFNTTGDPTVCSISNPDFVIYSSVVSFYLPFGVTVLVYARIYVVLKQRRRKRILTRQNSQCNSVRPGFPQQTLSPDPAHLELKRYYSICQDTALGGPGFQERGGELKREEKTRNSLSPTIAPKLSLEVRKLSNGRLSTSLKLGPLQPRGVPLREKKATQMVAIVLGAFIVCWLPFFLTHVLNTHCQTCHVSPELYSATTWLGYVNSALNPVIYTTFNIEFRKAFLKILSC
# Molecular target: human D3 receptors (Homo sapiens, UniProt P35462)
# Test: β-arrestin recruitment assay (antagonist mode, competition with dopamine)
# Conditions: potency for D3 receptors, CHO-K1 cells, vs 30 nM (EC80) dopamine; mean ± SD, three experiments
structure (smiles),measurement,value
"CCN(C)CCNC(=O)c1cc(Br)cc(OC)c1OC [compound 12, 5-Bromo-N-(2-(ethyl(methyl)amino)ethyl)-2,3-dimethoxybenzamide]",IC50,4.6 nM

# The match of structure and compound is tentative.
